Data taken from PubChem BioAssay AID256 (DTP/NCI, 2004).
The list is a part of this screen's results and no random one: it gathers tests that were run many times, whatever their T/C, doses with no T/C, and many T/C values between a quarter and a half above the control. Other doses and runs of a compound stand elsewhere. T/C is the treated group as % of the vehicle group. Some entries give survivors of the animals treated and no T/C: the source holds a T/C of zero for them, seemingly a mark for toxic or unscored doses. Some doses without a T/C left all or most animals alive at the check, yet need not have been tolerated: survival well below the control is almost never listed, so the zero probably covers shortened survival too. Counts of survivors are from the toxicity check (mostly the fifth day) where no day follows; animals may have died later. Schedule codes are those of the source, taken here to give the interval after Q, in days (D) or hours (H), and the number of doses after X. Some entries were tested several times; their values stand side by side, smallest first. For survival time, this PubChem deposit counts one and a half times the control or more as active, and values a quarter to a half above the control carry no call in these data; other NCI protocols may use other cut-offs.

System: CD2F1 mice, L1210 leukemia ip, survival T/C
Experiment: NCI In Vivo Anticancer Drug Screen. Data for tumor model L1210 Leukemia (intraperitoneal) in CD2F1 (CDF1) mice
Details: higher T/C = longer survival
Outline: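 Mice carrying a transplanted tumor received test compound or vehicle alone. The value is the measurement in the treated group divided by that in the vehicle-treated control group.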

[1] = T/C endpoint: mean survival time, dose: 10.0 mg/kg/injection, schedule: Q01DX009 (ip), vehicle: saline with Tween-80
[2] = T/C endpoint: mean survival time, dose: 100.0 mg/kg/injection, schedule: Q04DX002 (ip), vehicle: saline with Tween-80
[3] = T/C endpoint: mean survival time, dose: 400.0 mg/kg/injection, schedule: Q04DX002 (ip), vehicle: saline with Tween-80

COC12[C@@H]3N[C@@H]3CN1C1=C(C(=O)C(N(C)CCN(C)C)=C(C)C1=O)[C@@H]2COC(N)=O (some centres not stated)
T/C (T/C endpoint: median survival time, dose: 24.0 mg/kg/injection, schedule: Q01DX001 (ip), vehicle: saline): 129 % of control | survivor count (T/C endpoint: median survival time, dose: 48.0 mg/kg/injection, schedule: Q01DX001 (ip), vehicle: saline): 2 of 6 and 3 of 6

Cc1ccc(S(=O)(=O)NCl)cc1
survivor count (T/C endpoint: mean survival time, dose: 100.0 mg/kg/injection, schedule: Q01DX009 (ip), vehicle: saline): 0 of 6

O=c1[nH]c(=O)c2ncnnc2[nH]1
survivor count (T/C endpoint: mean survival time, dose: 100.0 mg/kg/injection, schedule: Q01DX001 (ip), vehicle: other): 2 of 6 | survivor count (T/C endpoint: mean survival time, dose: 200.0 mg/kg/injection, schedule: Q01DX001 (ip), vehicle: other): 0 of 6 | survivor count (T/C endpoint: mean survival time, dose: 400.0 mg/kg/injection, schedule: Q01DX001 (ip), vehicle: other): 0 of 6

O=c1sc(N=Nc2ccccc2)nn1-c1ccccc1
survivor count (T/C endpoint: mean survival time, dose: 400.0 mg/kg/injection, schedule: Q04DX003 (ip), vehicle: saline): 6 of 6

N=c1nc2c3ccccc3nnn2c2ccccc12
survivor count (T/C endpoint: mean survival time, dose: 200.0 mg/kg/injection, schedule: Q01DX001 (ip), vehicle: Klucel (hydroxypropylcellulose) (HPC)): 1 of 3

O=C1C=Cc2ccccc2C1=O
survivor count (T/C endpoint: mean survival time, dose: 5.0 mg/kg/injection, schedule: Q01DX009 (ip), vehicle: saline with Tween-80): 2 of 6 | survivor count [1]: 0 of 6

O=CNc1ccccc1.[Hg]
survivor count (T/C endpoint: mean survival time, dose: 25.0 mg/kg/injection, schedule: Q04DX002 (ip), vehicle: saline with Tween-80): 1 of 3 | survivor count (T/C endpoint: mean survival time, dose: 50.0 mg/kg/injection, schedule: Q04DX002 (ip), vehicle: saline with Tween-80): 0 of 3 | survivor count [2]: 0 of 3

NC(=O)c1csc(C2OC(CO)CC2O)n1 (configuration not stated)
T/C (T/C endpoint: median survival time, dose: 1000.0 mg/kg/injection, schedule: Q01DX005 (ip), vehicle: water): 128 % of control

O/N=C1\CN2CCC1CC2
survivor count (T/C endpoint: mean survival time, dose: 200.0 mg/kg/injection, schedule: Q01DX001 (ip), vehicle: saline with Tween-80): 2 of 6 | survivor count (T/C endpoint: mean survival time, dose: 400.0 mg/kg/injection, schedule: Q01DX001 (ip), vehicle: saline with Tween-80): 0 of 6

C=CCC(C)(C)/C=N/N
survivor count (T/C endpoint: mean survival time, dose: 300.0 mg/kg/injection, schedule: Q01DX001 (ip), vehicle: saline): 0 of 6

O=P(NC12CC3CC(CC(C3)C1)C2)(N1CC1)N1CC1
T/C (T/C endpoint: mean survival time, dose: 13.3 mg/kg/injection, schedule: Q04DX003 (ip), vehicle: Klucel (hydroxypropylcellulose) (HPC)): 128 % of control | T/C (T/C endpoint: mean survival time, dose: 20.0 mg/kg/injection, schedule: Q04DX003 (ip), vehicle: Klucel (hydroxypropylcellulose) (HPC)): 142 % of control

[Co+3].[NH-]CC(=O)O.[NH-]CC(=O)O.[NH-]CC(=O)O
survivor count [2]: 3 of 3 | survivor count (T/C endpoint: mean survival time, dose: 200.0 mg/kg/injection, schedule: Q04DX002 (ip), vehicle: saline with Tween-80): 3 of 3 | T/C [3]: 130 % of control | survivor count [3]: 1 of 3

ClCCN(CCCl)c1ccc(CNCCCNCc2ccc(N(CCCl)CCCl)cc2)cc1
T/C (T/C endpoint: mean survival time, dose: 5.0 mg/kg/injection, schedule: Q01DX009 (ip), vehicle: saline sonified): 128 % of control | survivor count [1]: 3 of 6 | survivor count (T/C endpoint: mean survival time, dose: 20.0 mg/kg/injection, schedule: Q01DX009 (ip), vehicle: saline with Tween-80): 2 of 6 | survivor count (T/C endpoint: mean survival time, dose: 40.0 mg/kg/injection, schedule: Q01DX009 (ip), vehicle: saline with Tween-80): 0 of 6

O=C(O)c1ccc(C(=O)O)c2c(C(=O)O)ccc(C(=O)O)c12
survivor count (T/C endpoint: mean survival time, dose: 400.0 mg/kg/injection, schedule: Q01DX009 (ip), vehicle: saline with Tween-80): 4 of 6

CN(C)C/C(=C\c1ccccc1)C(=O)c1ccccc1
survivor count (T/C endpoint: mean survival time, dose: 100.0 mg/kg/injection, schedule: Q04DX003 (ip), vehicle: other): 5 of 6

OCC1OC(n2nnc3cc[nH]c(=S)c32)C(O)C1O (configuration not stated)
survivor count (T/C endpoint: mean survival time, dose: 47.5 mg/kg/injection, schedule: Q01DX005 (ip), vehicle: water): 0 of 4 | survivor count (T/C endpoint: mean survival time, dose: 95.0 mg/kg/injection, schedule: Q01DX005 (ip), vehicle: water): 0 of 4 | survivor count (T/C endpoint: mean survival time, dose: 190.0 mg/kg/injection, schedule: Q01DX005 (ip), vehicle: water): 0 of 4
